We go through one compound from PubChem BioAssay (EPA / NIEHS).

Sequences of proteins named here, by UniProt entry; tags and fusion partners are left off. A change or cut given only in a name is not applied to a line headed by its entry.
UniProt Q16656: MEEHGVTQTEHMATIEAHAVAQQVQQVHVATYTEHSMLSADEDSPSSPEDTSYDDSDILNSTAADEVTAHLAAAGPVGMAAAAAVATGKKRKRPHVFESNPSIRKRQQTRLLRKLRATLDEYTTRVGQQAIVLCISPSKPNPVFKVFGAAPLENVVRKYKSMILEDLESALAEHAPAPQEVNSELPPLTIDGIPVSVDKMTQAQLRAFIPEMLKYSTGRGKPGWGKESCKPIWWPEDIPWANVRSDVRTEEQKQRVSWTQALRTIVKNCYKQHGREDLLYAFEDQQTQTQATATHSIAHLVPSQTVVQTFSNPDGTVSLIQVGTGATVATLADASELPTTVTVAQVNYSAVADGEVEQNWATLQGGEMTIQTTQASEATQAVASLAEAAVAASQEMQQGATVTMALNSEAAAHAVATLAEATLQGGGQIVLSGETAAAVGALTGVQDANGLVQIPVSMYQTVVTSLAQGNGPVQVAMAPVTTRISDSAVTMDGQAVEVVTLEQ
UniProt Q60492, whole entry, looked up: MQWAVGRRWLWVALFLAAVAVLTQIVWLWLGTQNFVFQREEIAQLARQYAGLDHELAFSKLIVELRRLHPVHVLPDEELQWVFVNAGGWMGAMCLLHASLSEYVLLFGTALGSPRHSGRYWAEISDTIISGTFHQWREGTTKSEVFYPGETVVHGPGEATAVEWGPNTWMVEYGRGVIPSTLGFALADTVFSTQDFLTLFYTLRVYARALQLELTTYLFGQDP
UniProt Q5TCH4: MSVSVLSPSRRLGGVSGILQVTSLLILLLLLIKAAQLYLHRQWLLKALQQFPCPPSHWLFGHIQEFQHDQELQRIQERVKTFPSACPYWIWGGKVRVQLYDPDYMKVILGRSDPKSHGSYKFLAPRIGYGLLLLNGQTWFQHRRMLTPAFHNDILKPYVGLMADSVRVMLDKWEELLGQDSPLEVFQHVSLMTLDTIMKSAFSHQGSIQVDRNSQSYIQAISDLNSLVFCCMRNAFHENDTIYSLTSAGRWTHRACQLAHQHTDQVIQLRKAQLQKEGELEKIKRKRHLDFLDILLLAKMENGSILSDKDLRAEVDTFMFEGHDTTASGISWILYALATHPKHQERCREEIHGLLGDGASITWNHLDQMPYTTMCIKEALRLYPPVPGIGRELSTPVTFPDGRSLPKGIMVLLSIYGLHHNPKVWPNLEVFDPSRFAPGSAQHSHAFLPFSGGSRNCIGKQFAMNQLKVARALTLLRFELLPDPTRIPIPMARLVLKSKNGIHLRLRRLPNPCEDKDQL
UniProt P22680: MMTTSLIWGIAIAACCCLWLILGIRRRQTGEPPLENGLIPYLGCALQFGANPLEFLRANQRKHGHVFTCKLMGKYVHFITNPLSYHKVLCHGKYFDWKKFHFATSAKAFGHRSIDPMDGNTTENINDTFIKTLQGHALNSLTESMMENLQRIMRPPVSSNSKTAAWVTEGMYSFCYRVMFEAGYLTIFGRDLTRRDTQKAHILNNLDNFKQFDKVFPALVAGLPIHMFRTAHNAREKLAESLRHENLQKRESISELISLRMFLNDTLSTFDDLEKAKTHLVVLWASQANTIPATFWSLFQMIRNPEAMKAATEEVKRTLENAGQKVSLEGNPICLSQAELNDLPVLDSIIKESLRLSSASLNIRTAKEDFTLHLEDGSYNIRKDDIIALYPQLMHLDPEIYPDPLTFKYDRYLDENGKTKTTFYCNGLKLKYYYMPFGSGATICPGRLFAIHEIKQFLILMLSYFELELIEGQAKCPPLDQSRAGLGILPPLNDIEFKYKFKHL
UniProt Q16236, whole entry, looked up: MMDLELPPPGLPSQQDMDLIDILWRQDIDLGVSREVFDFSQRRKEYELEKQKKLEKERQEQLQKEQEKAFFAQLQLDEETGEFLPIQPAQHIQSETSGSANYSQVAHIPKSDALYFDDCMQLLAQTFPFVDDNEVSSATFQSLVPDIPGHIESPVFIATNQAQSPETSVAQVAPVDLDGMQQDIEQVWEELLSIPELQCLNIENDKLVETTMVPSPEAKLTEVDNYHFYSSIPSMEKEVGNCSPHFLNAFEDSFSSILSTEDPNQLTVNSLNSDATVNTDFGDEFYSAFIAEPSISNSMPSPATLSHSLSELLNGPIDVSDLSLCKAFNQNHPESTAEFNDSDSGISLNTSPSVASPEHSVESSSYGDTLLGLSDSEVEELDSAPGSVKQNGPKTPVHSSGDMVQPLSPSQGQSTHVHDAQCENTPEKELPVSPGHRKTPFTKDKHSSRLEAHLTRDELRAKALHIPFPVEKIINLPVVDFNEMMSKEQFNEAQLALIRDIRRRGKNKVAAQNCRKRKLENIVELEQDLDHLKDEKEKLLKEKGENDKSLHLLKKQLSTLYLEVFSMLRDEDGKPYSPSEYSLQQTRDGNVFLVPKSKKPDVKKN

Each structure is given as a SMILES string. For part of these data: This list holds what a sample rich in hits left over. Only a part is listed here, and it is no random draw. The source made the active and inactive calls. Rule for the calls, unless noted: active = hit-call score of the fitted dose curve at least 0.9, where 1 is the maximum; inactive = score below 0.9.

Assay [1] in a line: APR_HepG2_CellCycleArrest_24hr: Apredica 24-hour HepG2 Assay for Cell Cycle Arrest (AID 2282905).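 Note: cell cycle arrest scored as ratio of 2N to 4N nuclear DNA content.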 The conditions noted are these: imaging, actives raise or lower the signal. The method in brief:
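Compounds (0.39 to 200 uM, final DMSO 0.5% v/v) are applied to HepG2 cells for 24 hours; cells are then fixed, permeabilized and nuclei labeled with Hoechst 33342. Automated imaging measures DNA content, and activity is fitted in both directions against DMSO.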

Assay [2] in a line: APR_HepG2_NuclearSize_24hr: Apredica 24-hour HepG2 Assay for Nuclear Size (AID 2282907). The note with it: high-content imaging, actives raise or lower the signal. The method in brief:
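Nuclear size is measured by fluorescence high-content imaging of Hoechst-labelled HepG2 nuclei after 24 hr of treatment (0.39–200 uM, 0.5% DMSO). Cells are fixed in 3.7% formaldehyde before staining, and DMSO serves as the baseline for bidirectional curve fitting.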

Assay [3] can be described thus: APR_HepG2_MicrotubuleCSK_24hr: Apredica 24-hour HepG2 Assay for Microtubule CSK Stabilty (AID 2282909). The conditions noted are these: HepG2 microtubule cytoskeleton imaging, actives raise or lower the signal. The method in brief:
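Compounds were applied to HepG2 cells for 24 hours across 0.39–200 uM in duplicate, with final DMSO at 0.5% v/v. Fixed, permeabilized cells were labeled for alpha-tubulin and nuclei, and tubulin fluorescence was quantified by imaging, fitted bidirectionally against DMSO.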

Assay [4] in a line: APR_HepG2_CellCycleArrest_72hr: Apredica 72-hour HepG2 Assay for Cell Cycle Arrest (AID 2282914). The conditions noted are these: high-content imaging, actives raise or lower the signal. The method in brief: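 Read-out is Hoechst-stained nuclear DNA content measured by automated fluorescence imaging (20x, six images per well), fitted in both directions relative to DMSO. Human HepG2 liver cells received 0.39–200 uM compound for 72 hr at 0.5% v/v DMSO.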

Assay [5] in a line: APR_HepG2_MicrotubuleCSK_72hr: Apredica 72-hour HepG2 Assay for Microtubule CSK Stabilty (AID 2282919). The conditions noted are these: HepG2 microtubule cytoskeleton, high-content imaging, actives raise or lower the signal. The essentials:
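Ten-point dosing (0.39–200 uM, 0.5% DMSO) of HepG2 for 72 hr, with taxol as the cytoskeletal positive control. The cells were formaldehyde-fixed and then stained with alpha-tubulin/Cy5 and Hoechst. Imaging at 20x used a −2 um Z offset for tubulin.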

Assay [6] in a line: APR_HepG2_NuclearSize_72hr: Apredica 72-hour HepG2 Assay for Nuclear Size (AID 2282925). The note with it: high-content imaging, actives raise or lower the signal. The method in brief:
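Compounds (0.39–200 uM, final DMSO 0.5%) were applied to HepG2 for 72 hr. Cells were then formaldehyde-fixed, permeabilized and labelled with Hoechst 33342. Nuclear diameter was quantified from six images per well.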

The target in assay [7] is Nuclear respiratory factor 1 (Homo sapiens) (UniProt Q16656). Put plainly: ATG_NRF1_CIS: Attagene CIS-FACTORIAL HepG2 Assay for human Nuclear Respiratory Factor 1 (NRF1) Orphan Gene (AID 2282987). The note with it: HepG2 NRF1 cis-element reporter, Attagene multiplex; actives raise or lower the signal. The essentials: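 Fluorescence intensity of labelled reporter cDNA fragments, resolved by capillary electrophoresis, served as readout for NRF1 cis-element activity. Transiently transfected HepG2 cells were dosed for 24 hours; activity in either direction was fitted against DMSO negative control.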

Assay [8] in a line: ATG_NFI_CIS: Attagene CIS-FACTORIAL HepG2 Assay for human Nuclear Factor I (NFI) (AID 2282989). The conditions noted are these: HepG2 cis-regulatory reporter, NFI response element transcription; actives raise or lower the signal. The essentials: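 Cells: human liver HepG2, transiently transfected with promoter-regulated reporter transcription units. Exposure 24 h. Detection: fluorescent RT-PCR products separated by capillary electrophoresis, normalised to DMSO negative control.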

The nature of assay [9]: ATG_NRF2_ARE_CIS: Attagene CIS-FACTORIAL HepG2 Assay for human Nuclear Factor Erythroid 2 Related Factor 2 (NFR2) response to Antioxidant Response Elements (ARE) (AID 2282992). The conditions noted are these: HepG2 Attagene ARE/NRF2 reporter, transcription factor activity; actives raise or lower the signal. The method in brief:
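Using transiently transfected HepG2 cells exposed for 24 h, reporter mRNA levels were determined by RT-PCR with fluorescent primer extension and capillary electrophoresis, analysed for gain or loss of signal against DMSO.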

Assay [10] has as its target guinea pig Sigma Receptor, Non-selective Binding, SIGMAR1 (gene 100135589) (UniProt Q60492). Put plainly: NVS_OR_gSIGMA_NonSelective: NovaScreen (NVS) Nuclear Receptor Binding Assay for guinea pig Sigma Receptor, Non-selective Binding (AID 2283367; active = hit-call score of the fitted dose curve at least 0.9, where 1 is the maximum). As to the method: NVS_OR_gSIGMA_NonSelective is a biochemical, single-readout assay that uses extracted gene-proteins from Guinea pig brain membranes in a tissue-based cell-free assay. Measurements were taken 1 hour after chemical dosing in a 48-well plate.NVS_OR_gSIGMA_NonSelective is one of one assay component(s) measured or calculated from the NVS_OR_gSIGMA_NonSelective assay. It is designed to make measurements of radioligand binding, a form of binding reporter, as detected with scintillation counting signals by Filter-based radiodetection technology.Data from the assay component NVS_OR_gSIGMA_NonSelective was analyzed into 1 assay endpoint. This assay endpoint, NVS_OR_gSIGMA_NonSelective, was analyzed in the positive analysis fitting direction relative to DMSO as the negative control and baseline of activity. Using a type of binding reporter, loss-of-signal activity can be used to understand changes in the binding as they relate to the gene Sigmar1. Furthermore, this assay endpoint can be referred to as a primary readout, because the performed assay has only produced 1 assay endpoint. To generalize the intended target to other relatable targets, this assay endpoint is annotated to the misc protein intended target family, where the subfamily is chaperone. […]

Read-out in assay [11]: Cytochrome P450 (CYP1A1), CYP1A1 (gene 1543)
The experiment in a line: LTEA_HepaRG_CYP1A1: Life Technologies and Expression Analysis (LTEA) Assay for Cytochrome P450 (CYP1A1) using HepaRG (AID 2283454). The note with it: actives raise or lower the signal; mRNA level, 48 h. The method in brief:
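HepaRG, 48 h post-plating switched to serum-free induction medium; 8-pt conc-response (top 100 uM, half-log, 0.5% DMSO), duplicates, 48 h. Lysis in RLT, TaqMan qRT-PCR for CYP1A1; gain or loss vs DMSO.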

Read-out in assay [12]: Cytochrome P450 (CYP24A1), CYP24A1 (gene 1591)
The experiment in a line: LTEA_HepaRG_CYP24A1: Life Technologies and Expression Analysis (LTEA) Assay for Cytochrome P450 (CYP24A1) using HepaRG (AID 2283478). The conditions noted are these: actives raise or lower the signal; mRNA level, 48 h. The essentials: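 HepaRG, 48 h chemical exposure, 8-pt half-log CRC from 100 uM, 0.5% DMSO vehicle, duplicates. Endpoint: CYP24A1 mRNA by Fluidigm TaqMan qRT-PCR, normalized ACTB/GAPDH/POLR2A; gain/loss fit vs DMSO.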

Read-out in assay [13]: Cytochrome P450 (CYP2B6), CYP2B6 (gene 1555)
The experiment in a line: LTEA_HepaRG_CYP2B6: Life Technologies and Expression Analysis (LTEA) Assay for Cytochrome P450 (CYP2B6) using HepaRG (AID 2283481). The note with it: actives raise or lower the signal; mRNA level, 48 h. The essentials: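 HepaRG cells plated 48 h, switched to serum-free induction medium, then dosed 48 h (8 points, half-log from 100 uM, 0.5% DMSO). RNA isolated; CYP2B6 expression measured by qRT-PCR; gain or loss fitted relative to DMSO.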

Read-out in a further assay: CYP2C8 (gene 1558)
The experiment in a line: LTEA_HepaRG_CYP2C8: Life Technologies and Expression Analysis (LTEA) Assay for CYP2C8 using HepaRG (AID 2283483). The conditions noted are these: actives raise or lower the signal; mRNA level, 48 h. The essentials: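 This is a transcriptional endpoint in HepaRG cultures: 48 h exposure, highest concentration 100 uM. CYP2C8 mRNA is quantified by TaqMan qRT-PCR.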

Read-out in the next assay: CYP2E1 (gene 1571)
The experiment in a line: LTEA_HepaRG_CYP2E1: Life Technologies and Expression Analysis (LTEA) Assay for CYP2E1 using HepaRG (AID 2283485). The conditions noted are these: actives raise or lower the signal; mRNA level, 48 h. The method in brief:
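Readout is qRT-PCR of CYP2E1 mRNA, normalized to three housekeeping genes and fitted bidirectionally against 0.5% DMSO. HepaRG cells were dosed 48 h at eight concentrations, highest 100 uM with half-log dilutions.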

Read-out in another assay: CYP4A11 (gene 1579)
Put plainly: LTEA_HepaRG_CYP4A11: Life Technologies and Expression Analysis (LTEA) Assay for CYP4A11 using HepaRG (AID 2283486). The conditions noted are these: actives raise or lower the signal; mRNA level, 48 h. The method in brief: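 HepaRG, 48 h chem exposure, 8 conc (100 uM top, half-log), 0.5% DMSO vehicle; qRT-PCR readout, housekeeping-gene normalized; bidirectional curve fit vs DMSO baseline.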

Read-out in assay [14]: Cytochrome P450 4A22 (Homo sapiens) (UniProt Q5TCH4)
The experiment in a line: LTEA_HepaRG_CYP4A22: Life Technologies and Expression Analysis (LTEA) Assay for Cytochrome P450 4A22 (CYP4A22) using HepaRG (AID 2283495). The note with it: actives raise or lower the signal; mRNA level, 48 h. The essentials: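 Readout is CYP4A22 transcript induction or loss, quantified by qRT-PCR and normalized to ACTB, GAPDH and POLR2A. Human HepaRG cells receive test chemicals for 48 h at eight half-log concentrations from 100 uM in 0.5% DMSO.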

Read-out in assay [15]: Cytochrome P450 7A1 (Homo sapiens) (UniProt P22680)
The experiment in a line: LTEA_HepaRG_CYP7A1: Life Technologies and Expression Analysis (LTEA) Assay for Cytochrome P450 7A1 (CYP7A1) using HepaRG (AID 2283496). The note with it: actives raise or lower the signal; mRNA level, 48 h. The essentials:
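HepaRG, 48 h exposure, 8-pt half-log series from 100 uM, 0.5% DMSO vehicle, duplicates. Readout: TaqMan qRT-PCR mRNA vs three housekeeping genes; bidirectional curve fit against DMSO baseline.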

Read-out in assay [16]: Nuclear factor erythroid 2-related factor 2 (Homo sapiens) (UniProt Q16236)
The experiment in a line: LTEA_HepaRG_NFE2L2: Life Technologies and Expression Analysis (LTEA) Assay for Nuclear factor erythroid 2-related factor 2 (NFE2L2) Transcription Factor using HepaRG (AID 2283527).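 Note: TaqMan qRT-PCR transcript level normalised to ACTB GAPDH and POLR2A housekeeping genes.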 The note with it: actives raise or lower the signal; mRNA level, 48 h. The essentials:
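Human liver HepaRG line treated in duplicate for 48 h with an eight-point series topping at 100 uM. Gene expression of NFE2L2 by qRT-PCR, bidirectionally fitted against the vehicle control.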

The nature of assay [17]: STM_H9_OrnithineISnorm_perc: Stemina devTOX quickPredict H9 human embryonic stem cell (hESC)-based Assay for Ornithine (ORN) Metabolite Biomarker, Normalized (AID 2283712).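 Note: ornithine released into spent medium during last day measured by mass spectrometry.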 The essentials: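 Ornithine secreted by H9 hESCs after 72h compound treatment (daily media/compound renewal) was quantified in final-day media by UPLC-HRMS. Values are isotope-standard-normalized, expressed relative to 0.1% DMSO, fitted in positive direction.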

A short description of assay [18]: CCTE_Shafer_MEA_acute_cross_correlation_HWHM: CCTE's Neural Acute Assay for Cross Correlation at Half Width at Half Maximum, Shafer Lab (AID 2284026).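 Note: percent change per well from pre-dose baseline in spike cross-correlogram half width; hits are a decrease in cross-correlogram half width relative to DMSO.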 The method in brief:
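Rat cortical neuron cultures on microelectrode arrays were equilibrated 20 min at 37 C, recorded 40 min at baseline, then 40 min after compound addition (0.03-40 uM, ≥3 wells). Spikes were detected at 8x rms noise after 300-5000 Hz band-pass filtering.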

Broadly, the AC50 is the concentration giving half of the maximal activity seen.

In the case of `CN(C)CCOC(c1ccccc1)c1ccccc1`, the AC50 in assay [1] is active: 73.9 µM; in assay [6], active: 108 µM; in assay [10] it was active: 5.03 µM; in assay [11], active: 86.7 µM; in [13] it was active: 4.9 µM; with CYP2E1 (gene 1571), active: 20.2 µM. Also, the values for the AC50 in [17] and in assay [18] were active: 16 µM and active: 9.64 µM, respectively. Further, the compound was classed as inactive in assay [2], in [3], in [4], in [5], in assay [7] and in [8]. For the same compound, the compound was classed as inactive (in assay [9]; in assay [12]; with CYP2C8 (gene 1558); in the assay with CYP4A11 (gene 1579); in assay [14]; in [15]). In addition, the result in assay [16] was inactive.
